{
  "sequences": {"note": "By UniProt entry, the sequences of proteins in these tests, tags left out. Where a name states a change or a piece, a line headed by the entry shows the natural chain unless it says otherwise.", "UniProt P08758": "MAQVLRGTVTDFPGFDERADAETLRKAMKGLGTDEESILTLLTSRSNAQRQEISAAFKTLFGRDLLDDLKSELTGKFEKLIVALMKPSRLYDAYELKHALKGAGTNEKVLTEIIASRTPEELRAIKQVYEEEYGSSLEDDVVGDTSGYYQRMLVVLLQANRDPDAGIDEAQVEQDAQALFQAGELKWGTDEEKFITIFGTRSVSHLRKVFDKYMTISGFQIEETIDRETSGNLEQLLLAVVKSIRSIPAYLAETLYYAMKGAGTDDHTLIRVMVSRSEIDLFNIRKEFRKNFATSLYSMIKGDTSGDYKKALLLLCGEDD", "UniProt P28867": "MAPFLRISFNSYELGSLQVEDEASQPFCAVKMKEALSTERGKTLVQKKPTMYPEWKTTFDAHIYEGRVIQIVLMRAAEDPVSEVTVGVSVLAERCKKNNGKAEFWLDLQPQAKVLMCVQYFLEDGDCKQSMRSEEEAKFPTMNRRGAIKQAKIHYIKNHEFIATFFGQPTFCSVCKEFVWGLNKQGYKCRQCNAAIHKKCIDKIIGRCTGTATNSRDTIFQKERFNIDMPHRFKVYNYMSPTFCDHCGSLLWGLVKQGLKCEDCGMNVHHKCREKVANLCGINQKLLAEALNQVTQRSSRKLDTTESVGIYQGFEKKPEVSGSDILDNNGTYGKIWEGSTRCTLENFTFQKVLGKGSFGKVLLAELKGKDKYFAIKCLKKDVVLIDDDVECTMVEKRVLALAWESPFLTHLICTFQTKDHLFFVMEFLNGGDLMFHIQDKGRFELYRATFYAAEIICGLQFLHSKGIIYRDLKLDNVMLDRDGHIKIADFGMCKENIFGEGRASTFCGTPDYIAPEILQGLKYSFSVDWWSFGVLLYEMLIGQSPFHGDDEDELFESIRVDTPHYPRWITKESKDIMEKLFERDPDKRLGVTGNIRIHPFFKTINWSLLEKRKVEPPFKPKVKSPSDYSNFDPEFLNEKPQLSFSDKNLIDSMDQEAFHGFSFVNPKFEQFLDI"},
  "source": "patent US20090081786A1",
  "about": "“Peptide sequences for modulation of protein kinase C” (priority 2006, published 2009)",
  "target": "CFP-annexin V (Homo sapiens (Human)) (UniProt P08758)",
  "assay": "FRET between CFP-annexin V and YFP-δPKC in transfected CHO cells, 100 nM PMA, FIG. 4A",
  "note": "Results are given in words; binding and its absence hold for the method and conditions named. Some entries that bind do so weakly or less than the wild type.",
  "data": [
    {"substance": "YFP-δPKC (from UniProt P28867 1-674)", "values": [
      {"measurement": "binding", "result": "binds"}
    ]}
  ]
}
